The other results are listed elsewhere or left out.

The chains behind the UniProt entries cited, without tags or fusion partners.
UniProt Q0JBA9, entry or part of it: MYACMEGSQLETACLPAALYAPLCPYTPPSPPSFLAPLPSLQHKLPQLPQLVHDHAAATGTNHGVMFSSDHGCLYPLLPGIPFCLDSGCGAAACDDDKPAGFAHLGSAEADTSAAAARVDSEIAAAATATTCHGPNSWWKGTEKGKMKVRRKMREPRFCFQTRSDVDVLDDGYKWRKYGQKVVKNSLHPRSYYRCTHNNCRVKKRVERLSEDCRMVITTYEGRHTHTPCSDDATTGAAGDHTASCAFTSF

The results in this text go back to article PMC7819943, “Rice protein-binding microarrays: a tool to detect cis-acting elements near promoter regions in rice”.

This assay has as its target OsWRKY34 (Oryza sativa, UniProt Q0JBA9 1-250). The experiment in a line: protein-binding microarray (RPBM); PBS, 2% BSA, 51.3 ng/ul salmon testes DNA, 50 uM zinc acetate, 200 nM TF, 25 C, 1 h; high values mean tight binding. The following applies: protein: recombinant; tags: N-terminal polyhistidine and DsRed monomer fusion (pET32a); label: CyDye5-dUTP incorporated in the synthesized complementary strand; 3' TTTTT single-stranded linker to array surface; dsDNA, one strand shown. The essentials: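 Transcription factors were made in E. coli BL21-CodonPlus as N-terminal fusions to a polyhistidine tag and DsRed, then purified on Ni–NTA. After primer extension with Cy5-dUTP and blocking with 2% BSA, a custom Agilent array was exposed for 1 h at 25 °C to 200 nM protein in PBS, 2% BSA, salmon testes DNA and 50 µM zinc acetate. Washed arrays were scanned on an Axon 4000B, and the binding signal is per-feature fluorescence intensity in arbitrary units.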
In the case of “ACTGCATGCCCGGTTTCCTCGTCGTCGCAAGTTACCTGTCCGGAGTCACCTAGTGCAG”, the binding signal was 9570 fluorescence intensity (a.u.).
In the case of “GTCGATTGACTTTTTACTCTCTGTGTCTGTGTCTCAGTTTCGGAGTCACCTAGTGCAG”, the binding signal is 11700 fluorescence intensity (a.u.).
As for “TTCAACGTTTTCCTAACTTTTTCTTCAAACTTTCAATTTTCGGAGTCACCTAGTGCAG”, the binding signal is 9800 fluorescence intensity (a.u.).
To “CAATTGCCCGCGCTGCGCGGCCCACATGTCGGTCCAATTCCGGAGTCACCTAGTGCAG” belongs 8330 fluorescence intensity (a.u.); to “CAACTAAACTCTGCTTTTGATACAATTGATCGGTATATATCGGAGTCACCTAGTGCAG”, 9030 fluorescence intensity (a.u.).
As to “ACATTCCATCGCACTCATTTTAGAGGACACATATTTGAATCGGAGTCACCTAGTGCAG”, the binding signal was 8800 fluorescence intensity (a.u.).
Turning to “TGTTAATCATCAGTTCATCACCCACTCACCAGTCACCACCCGGAGTCACCTAGTGCAG”, the binding signal was 8810 fluorescence intensity (a.u.).
With “ACTCGACTTCCGCGGCACCACCTCTTCCCCTCCCCTACCTCGGAGTCACCTAGTGCAG”, the binding signal was 9900 fluorescence intensity (a.u.).
To “AGATGTCCTAAATCCTGCGTGCCCGGTTGATCTGCTCCCACGGAGTCACCTAGTGCAG” belongs 9120 fluorescence intensity (a.u.); to “AATCACGCGCTAATAGACTATTATGTTTTCCGTATGCACTCGGAGTCACCTAGTGCAG”, 8720 fluorescence intensity (a.u.).
As for “CGCTTGGTGGCGGTGGGGCATCGACTGGGCCGGCGGGTTGCGGAGTCACCTAGTGCAG”, the binding signal is 8230 fluorescence intensity (a.u.).
Regarding “GAATCTTAATATTTTGTATTACCACTGATATTTTTTCTTTCGGAGTCACCTAGTGCAG”, the binding signal is 8120 fluorescence intensity (a.u.).
On to “CCCTCGCTGTCACCTCCCCGGTCCCATCTTTGGCCGCCGTCGGAGTCACCTAGTGCAG”, for which the binding signal is 11600 fluorescence intensity (a.u.).
For the sequence “GTGTTCTTTCAGCAAATTGTGATGCCTGCCAATCTGCCATCGGAGTCACCTAGTGCAG”, the binding signal was 8250 fluorescence intensity (a.u.).
Regarding “AAGGTCACTCGGCAGTATTGACAGCGGTTTTGGTTGACGTCGGAGTCACCTAGTGCAG”, the binding signal is 9430 fluorescence intensity (a.u.).
“GCTCGCGCCACTTGTAATTTTTCGCGTCTCCTCTCGTCCGCGGAGTCACCTAGTGCAG”: the binding signal is 10100 fluorescence intensity (a.u.).
On to “CTATGTTCATTGTGGCCTCGTGTATTTGTTGGGTTGTGGACGGAGTCACCTAGTGCAG”, for which the binding signal was 10400 fluorescence intensity (a.u.).
“ATTGTTTTCAATTGATTAATTTGCTCTCTCTATTTTTTTTCGGAGTCACCTAGTGCAG”: the binding signal was 10100 fluorescence intensity (a.u.).
For the sequence “TTTGTCCCTGTACGGTTCTACATTGTACATATATATATATCGGAGTCACCTAGTGCAG”, the binding signal was 8230 fluorescence intensity (a.u.).
On to “TACGAGGAGGGCCCATGCGTCGGTGGGTAGGGTGAAAAGACGGAGTCACCTAGTGCAG”, for which the binding signal is 8690 fluorescence intensity (a.u.).
Regarding “TATTACTCTTCCTATGCGCGAACAGTATTTTGGCATCTTTCGGAGTCACCTAGTGCAG”, the binding signal was 10600 fluorescence intensity (a.u.).
With “TCGCATTTCTCTCTTTTTCTCTCACGTTTCTCTCCCGTTCCGGAGTCACCTAGTGCAG”, the binding signal is 10000 fluorescence intensity (a.u.).
As for “GAAAGATGATTTGGCAAGTAAATAAATAAGAAAAGAGAAGCGGAGTCACCTAGTGCAG”, the binding signal was 62600 fluorescence intensity (a.u.).
Take “CACAGGCTGGCCGATGGGTGGGGAGGAGGCCTGCAGGGTGCGGAGTCACCTAGTGCAG”: the binding signal was 8510 fluorescence intensity (a.u.).
For the sequence “ACCACCGCCGCCGCCCTCGTCCTCGCCGCCGGCGGCCATGCGGAGTCACCTAGTGCAG”, the binding signal is 8230 fluorescence intensity (a.u.).
In the case of “TCGTCGATCTCGTGGCCGCCGCACTTCCTATTTAAGCACCCGGAGTCACCTAGTGCAG”, the binding signal is 12400 fluorescence intensity (a.u.).
Regarding “GCCGCGTTTATCCGTTACGTTTTCATTTTTTAATACGCCCCGGAGTCACCTAGTGCAG”, the binding signal is 9210 fluorescence intensity (a.u.).
“AATGCTTCTTGTGGGCCCCATCACATTTATTTTAATTATCCGGAGTCACCTAGTGCAG”: the binding signal was 9390 fluorescence intensity (a.u.).
In the case of “TCCATATGCATCTACATGTTGTTTCAATGATTGGTTGTTCCGGAGTCACCTAGTGCAG”, the binding signal was 10200 fluorescence intensity (a.u.).
Regarding “CATATCTGTAGCCCGCTGCTCTTCTCTCTCTTCATTTATCCGGAGTCACCTAGTGCAG”, the binding signal is 9200 fluorescence intensity (a.u.).
Consider “AAAGTTTTAGTCTTGCTGCTCCGTCCATATTTTTATAACTCGGAGTCACCTAGTGCAG”, for which the binding signal was 10800 fluorescence intensity (a.u.).
With “CGACCACGCCGCACGGCCTATTGCTCCATCCACGTTTAAACGGAGTCACCTAGTGCAG”, the binding signal was 10900 fluorescence intensity (a.u.).
To “GGTTCGTCGTCAGGTGTGCTGAAACTGTCCCCATCCCTTCCGGAGTCACCTAGTGCAG” belongs 10600 fluorescence intensity (a.u.); to “AATCTTTTTCTACTATCACTATATTATATTCTATTTTTACCGGAGTCACCTAGTGCAG”, 8820 fluorescence intensity (a.u.).
For the sequence “TTCTCCACCATTCCATCTCTTCTCTTTCTGCCTGAGCTGCCGGAGTCACCTAGTGCAG”, the binding signal is 11800 fluorescence intensity (a.u.).
Turning to “AATTAATTTCTCGCTCCATTGTGTGTGTGGCCAAAGAAGACGGAGTCACCTAGTGCAG”, the binding signal is 8570 fluorescence intensity (a.u.).
The value for “CCGTCCCACTCCCACCCACGCCGCCGCCACCGCCGCCGCCCGGAGTCACCTAGTGCAG” was 13200 fluorescence intensity (a.u.).
With “TGCTATACTACTTGTCACATCCATCATCTCTCATTCAAATCGGAGTCACCTAGTGCAG”, the binding signal is 10400 fluorescence intensity (a.u.).
The value for “TCGTAGTCGTGATTTTCTACTTCAGAAACTTGCTGCTTCACGGAGTCACCTAGTGCAG” was 8170 fluorescence intensity (a.u.); that for “GTTTGACCCGGTTTTGGTCTCAGCGTGGGACCCACGTGGACGGAGTCACCTAGTGCAG” was 8240 fluorescence intensity (a.u.); that for “ATGGATGGACGTGCTGATGTGATGATCCCTTCTTATTGTTCGGAGTCACCTAGTGCAG” was 9770 fluorescence intensity (a.u.).
Regarding “AACCGTGCACGTGACGCTTTCAGTTTCTTTTCTTTTCTTTCGGAGTCACCTAGTGCAG”, the binding signal is 8890 fluorescence intensity (a.u.).
